# In the supplement of paper PMC11438910:
# This is one part of the list. The signal is at background level for most entries.
# B1: 4-80.1 (protein)
# chain 1: QVQLQESGPGLVKPSETLSLTCAVSGIPISTYWWSWIRQTPEKGLEWIGEIDGNGGGTNYNPSLQSRVTFSKDASKNQFSLRLNSVTAADTAVFYCARLWGNAYWGQGVLVTVSS
# chain 2: DVVMTQSPLSLPINPGQPASISCRSSQSLVYSDGKTYLTWYQQKPGQPPRRLIYQVSKRDSGVPDRFSGSGAGTDFTLKISRVESEDVGIYYCLQGTHLPYTFGQGTKVEIK
# Key:
# Assay in all cases: fluorescence intensity of antibody binding to polysaccharide-coupled beads; higher = stronger binding
# [1] = target: pneumococcal polysaccharide Pn44
# [2] = target: pneumococcal polysaccharide Pn45
# [3] = target: pneumococcal polysaccharide Pn46
# [4] = target: pneumococcal polysaccharide Pn47A
# [5] = target: pneumococcal polysaccharide Pn47F
# [6] = target: pneumococcal polysaccharide Pn48
# [7] = target: pneumococcal polysaccharide Pn5
# [8] = target: pneumococcal polysaccharide Pn6A
# [9] = target: pneumococcal polysaccharide Pn6B
# [10] = target: pneumococcal polysaccharide Pn6C
# [11] = target: pneumococcal polysaccharide Pn6D
# [12] = target: pneumococcal polysaccharide Pn7A
# [13] = antibody concentration 0.1 ng/mL
# [14] = antibody concentration 0.534724 ng/mL
# [15] = antibody concentration 2.8593 ng/mL
# [16] = antibody concentration 15.2894 ng/mL
# [17] = antibody concentration 81.7561 ng/mL
# [18] = antibody concentration 437.17 ng/mL
# [19] = antibody concentration 2337.65 ng/mL
# [20] = antibody concentration 12500 ng/mL
binder,measurement,setting,value
B1,fluorescence intensity,[1]; [13],25.5 MFI
same,fluorescence intensity,[1]; [14],24.5 MFI
same,fluorescence intensity,[1]; [15],24.5 MFI
same,fluorescence intensity,[1]; [16],25.5 MFI
same,fluorescence intensity,[1]; [17],26 MFI
same,fluorescence intensity,[1]; [18],40 MFI
same,fluorescence intensity,[1]; [19],86 MFI
same,fluorescence intensity,[1]; [20],178 MFI
same,fluorescence intensity,[2]; [13],11 MFI
same,fluorescence intensity,[2]; [14],11 MFI
same,fluorescence intensity,[2]; [15],11.5 MFI
same,fluorescence intensity,[2]; [16],11 MFI
same,fluorescence intensity,[2]; [17],14 MFI
same,fluorescence intensity,[2]; [18],36.5 MFI
same,fluorescence intensity,[2]; [19],112 MFI
same,fluorescence intensity,[2]; [20],247 MFI
same,fluorescence intensity,[3]; [13],24.2 MFI
same,fluorescence intensity,[3]; [14],25 MFI
same,fluorescence intensity,[3]; [15],29 MFI
same,fluorescence intensity,[3]; [16],86.2 MFI
same,fluorescence intensity,[3]; [17],457 MFI
same,fluorescence intensity,[3]; [18],1680 MFI
same,fluorescence intensity,[3]; [19],2670 MFI
same,fluorescence intensity,[3]; [20],3200 MFI
same,fluorescence intensity,[4]; [13],17 MFI
same,fluorescence intensity,[4]; [14],15.5 MFI
same,fluorescence intensity,[4]; [15],16.8 MFI
same,fluorescence intensity,[4]; [16],22 MFI
same,fluorescence intensity,[4]; [17],102 MFI
same,fluorescence intensity,[4]; [18],574 MFI
same,fluorescence intensity,[4]; [19],1160 MFI
same,fluorescence intensity,[4]; [20],1440 MFI
same,fluorescence intensity,[5]; [13],11.5 MFI
same,fluorescence intensity,[5]; [14],11 MFI
same,fluorescence intensity,[5]; [15],12.5 MFI
same,fluorescence intensity,[5]; [16],12.5 MFI
same,fluorescence intensity,[5]; [17],28.5 MFI
same,fluorescence intensity,[5]; [18],146 MFI
same,fluorescence intensity,[5]; [19],376 MFI
same,fluorescence intensity,[5]; [20],604 MFI
same,fluorescence intensity,[6]; [13],20.5 MFI
same,fluorescence intensity,[6]; [14],20.5 MFI
same,fluorescence intensity,[6]; [15],23.5 MFI
same,fluorescence intensity,[6]; [16],25.5 MFI
same,fluorescence intensity,[6]; [17],48.5 MFI
same,fluorescence intensity,[6]; [18],294 MFI
same,fluorescence intensity,[6]; [19],753 MFI
same,fluorescence intensity,[6]; [20],1100 MFI
same,fluorescence intensity,[7]; [13],9 MFI
same,fluorescence intensity,[7]; [14],9.75 MFI
same,fluorescence intensity,[7]; [15],9 MFI
same,fluorescence intensity,[7]; [16],13.5 MFI
same,fluorescence intensity,[7]; [17],52 MFI
same,fluorescence intensity,[7]; [18],293 MFI
same,fluorescence intensity,[7]; [19],575 MFI
same,fluorescence intensity,[7]; [20],789 MFI
same,fluorescence intensity,[8]; [13],20.5 MFI
same,fluorescence intensity,[8]; [14],22.5 MFI
same,fluorescence intensity,[8]; [15],22.5 MFI
same,fluorescence intensity,[8]; [16],31.5 MFI
same,fluorescence intensity,[8]; [17],108 MFI
same,fluorescence intensity,[8]; [18],566 MFI
same,fluorescence intensity,[8]; [19],1090 MFI
same,fluorescence intensity,[8]; [20],1490 MFI
same,fluorescence intensity,[9]; [13],20.5 MFI
same,fluorescence intensity,[9]; [14],19.8 MFI
same,fluorescence intensity,[9]; [15],20.8 MFI
same,fluorescence intensity,[9]; [16],28 MFI
same,fluorescence intensity,[9]; [17],78.2 MFI
same,fluorescence intensity,[9]; [18],348 MFI
same,fluorescence intensity,[9]; [19],614 MFI
same,fluorescence intensity,[9]; [20],801 MFI
same,fluorescence intensity,[10]; [13],16.5 MFI
same,fluorescence intensity,[10]; [14],17.5 MFI
same,fluorescence intensity,[10]; [15],17 MFI
same,fluorescence intensity,[10]; [16],18 MFI
same,fluorescence intensity,[10]; [17],22.5 MFI
same,fluorescence intensity,[10]; [18],208 MFI
same,fluorescence intensity,[10]; [19],622 MFI
same,fluorescence intensity,[10]; [20],1040 MFI
same,fluorescence intensity,[11]; [13],16.5 MFI
same,fluorescence intensity,[11]; [14],17 MFI
same,fluorescence intensity,[11]; [15],19 MFI
same,fluorescence intensity,[11]; [16],26 MFI
same,fluorescence intensity,[11]; [17],97.8 MFI
same,fluorescence intensity,[11]; [18],520 MFI
same,fluorescence intensity,[11]; [19],990 MFI
same,fluorescence intensity,[11]; [20],1270 MFI
same,fluorescence intensity,[12]; [13],20 MFI
same,fluorescence intensity,[12]; [14],20 MFI

# Shown with tabs: entries from further up.
binder	measurement	setting	value
B1	fluorescence intensity	[4]; [16]	22 MFI
same	fluorescence intensity	[4]; [17]	102 MFI
same	fluorescence intensity	[4]; [18]	574 MFI
same	fluorescence intensity	[4]; [19]	1160 MFI
same	fluorescence intensity	[4]; [20]	1440 MFI
same	fluorescence intensity	[5]; [13]	11.5 MFI
same	fluorescence intensity	[5]; [14]	11 MFI
same	fluorescence intensity	[5]; [15]	12.5 MFI
same	fluorescence intensity	[5]; [16]	12.5 MFI
same	fluorescence intensity	[5]; [17]	28.5 MFI
same	fluorescence intensity	[5]; [18]	146 MFI
same	fluorescence intensity	[5]; [19]	376 MFI
same	fluorescence intensity	[5]; [20]	604 MFI
same	fluorescence intensity	[6]; [13]	20.5 MFI
same	fluorescence intensity	[6]; [14]	20.5 MFI
same	fluorescence intensity	[6]; [15]	23.5 MFI
same	fluorescence intensity	[6]; [16]	25.5 MFI
same	fluorescence intensity	[6]; [17]	48.5 MFI
same	fluorescence intensity	[6]; [18]	294 MFI
same	fluorescence intensity	[6]; [19]	753 MFI
same	fluorescence intensity	[6]; [20]	1100 MFI
same	fluorescence intensity	[7]; [13]	9 MFI
same	fluorescence intensity	[7]; [14]	9.75 MFI
same	fluorescence intensity	[7]; [15]	9 MFI
